# The list shows a part of the results. These are further read-outs of the screen, such as a control signal, another cell line or another target. No call is given for them. The list favours compounds with an active or inconclusive main result. The note in brackets gives the kind of curve behind each potency; many fits are weak.
# Assay: qHTS Assay for Modulators of Lamin A Splicing
# Details: HeLa LMNA splicing GFP/RFP minigene ratio, 48 h
# In short: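 S3 HeLa stable clones carrying a lamin A-EGFP splicing minigene plus DsRed2 were seeded at 600 cells/well in Opti-MEM with 2% FBS, pin-dosed and incubated 48 h at 37°C. Acumen cytometry (488 nm) gave the GFP/RFP total-intensity ratio.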
# [1] = measured here: RFP viability control channel
# [2] = measured here: GFP splicing reporter channel
SMILES,AC50 [1],AC50 [2]
Cc1ccc(C)c(C(=O)COC(=O)c2cccc(N3C(=O)c4c(C)nc5ccccc5c4C3=O)c2)c1,"0.0562 µM [rising, full curve, poor fit]",
Cn1c(/C=C/c2ccc([N+](=O)[O-])o2)nc2ccccc2c1=O,"5.62 µM [falling, single point]","5.62 µM [falling, single point]"
COc1ccc(CNCCC(c2ccccc2)c2ccc3c(c2)OCO3)cc1 (stereo unspecified),"35.5 µM [falling, single point]","35.5 µM [falling, single point]"
O=C(/C=C/c1ccccc1Cl)c1ccc[nH]1,"14.1 µM [rising, single point]",
COc1ccccc1NC1=C(C)C(=O)CC1,"35.5 µM [rising, single point]",
COc1cccc(OC)c1C(=O)NCCSC1CCCCC1,,"1.26 µM [rising, full curve]"
CC(C(=O)NN=C(c1ccccc1)c1ccccc1)N1CCCC1 (stereo unspecified),,"0.316 µM [falling, partial curve, poor fit]"
CC(C)Oc1ccc(CNC(=O)CC(c2ccccc2)c2cc(Cl)ccc2O)cc1 (stereo unspecified),"28.2 µM [falling, single point]","25.1 µM [falling, single point]"
CCCCN(CC)C(=O)c1cc2cc3ccc(OC)cc3nc2o1,"31.6 µM [rising, single point]","35.5 µM [rising, single point]"
CC(Sc1nnnn1C)C(=O)Nc1ccc2c(c1)OCCO2 (stereo unspecified),"1.12 µM [falling, full curve, poor fit]",
CNc1nc(Nc2ccccc2)nc(OCC(F)(F)F)n1,"1.26 µM [rising, full curve]","2.24 µM [rising, partial curve, poor fit]"
Cn1c2ccccc2c(=O)c2c(=O)n(C3CCCCCC3)c(C3CCCCC3)nc21,"0.501 µM [rising, single point]",
COc1ccccc1-c1c(C)nn2c(N3CCCCCC3)cc(C)nc12,"31.6 µM [rising, single point]",
COc1ccc(OCCSc2ncnc3nc[nH]c23)cc1,"22.4 µM [rising, single point]",
Cc1ccc(C)c(NC(=O)CN(C)C(=O)CCN2C(=O)c3ccccc3C2=O)c1,"0.501 µM [falling, full curve, poor fit]","0.631 µM [falling, full curve, poor fit]"
COc1cc(C2SCC(=O)N2CCN2CCCCC2)ccc1O (stereo unspecified),,"1.41 µM [rising, full curve, poor fit]"
CC(=O)c1cc(-c2ccccc2)n(CCC(=O)Nc2ccc(C)cc2C)c1C,"1.12 µM [falling, single point]",
COc1ccccc1/C=C(/C(=O)OCC(=O)Nc1ccccc1C)c1ccccc1,"31.6 µM [rising, single point]",
CCc1ccc(C(=O)Nc2ccc(OC)c(S(=O)(=O)N3CCOCC3)c2)cc1,"0.1 µM [falling, full curve, poor fit]","11.2 µM [falling, partial curve]"
COc1ccccc1CNC(=O)CCC1N=C2c3ccccc3N=C(SCc3ccc(C)cc3)N2C1=O (stereo unspecified),"0.355 µM [falling, full curve, poor fit]",

SMILES,AC50 [1],AC50 [2]
CCC(=O)NC(c1ccc(C)cc1)c1cc([N+](=O)[O-])c2cccnc2c1O (stereo unspecified),"6.31 µM [rising, single point]","3.55 µM [falling, partial curve]"
COc1ccc(C(=O)/C=C2/c3ccccc3CC(C)(C)N2C)cc1,"20 µM [falling, partial curve, poor fit]","20 µM [falling, single point]"
Cc1ccccc1N=C1NN=C(c2ccccc2F)CS1,"35.5 µM [rising, single point]",
Cc1noc(C)c1COC(=O)c1cccc(S(=O)(=O)N2c3ccccc3CC2C)c1 (stereo unspecified),"14.1 µM [rising, partial curve]",
CC(C)Sc1ncnc2c1oc1ccccc12,,"5.62 µM [rising, single point]"
CSC1=NC(C)(C)C=C(/C=C/c2ccc(Cl)cc2Cl)N1,"15.8 µM [falling, single point]",
O=C(c1cc(NC(=O)C23CC4CC(CC(C4)C2)C3)cc(NC(=O)C23CC4CC(CC(C4)C2)C3)c1)N1CCCCC1,"7.94 µM [rising, partial curve]",
CCOc1ccccc1Nc1ncnc2c1cnn2-c1ccccc1,"35.5 µM [rising, single point]",
O=C(CCC(=O)NCCO)NCCO,"0.251 µM [falling, full curve, poor fit]",
O=C(NCC(c1cccs1)N1CCOCC1)c1ccc(Cl)c([N+](=O)[O-])c1 (stereo unspecified),"11.2 µM [rising, partial curve]",
O=C(CCCOc1ccccc1)Nc1ccc(Cl)cn1,"5.01 µM [falling, partial curve, poor fit]",
COc1ccc(Cl)cc1NC(=S)NNC(=O)CC(C)C,,"0.0282 µM [rising, full curve, poor fit]"
O=C(Nc1nc(-c2cccnc2)cs1)c1ccccc1[N+](=O)[O-],"0.0447 µM [falling, full curve, poor fit]",
CCCCCOC(=O)C1=C(C)Nc2nnnn2C1c1ccccc1Cl (stereo unspecified),"31.6 µM [rising, single point]","14.1 µM [rising, single point]"
O=C(Nc1ccc(Cl)c(Cl)c1)c1ccncc1,"20 µM [rising, single point]",
CS(=O)(=O)Nc1cccc(-c2ccc3ncnc(NC4CC4)c3c2)c1,"17.8 µM [falling, partial curve]","10 µM [falling, partial curve]"
Cc1ccc2cc(N)ccc2n1,"0.00447 µM [falling, full curve, poor fit]",
CCCC(=O)Nc1ccccc1-c1nnn(CC(=O)Nc2ccc(OC)cc2)n1,"31.6 µM [rising, single point]","22.4 µM [rising, single point]"
CCCCc1nc2n[nH]c(N)c2c2c1CCCC2,"15.8 µM [falling, partial curve, poor fit]","7.94 µM [falling, partial curve]"
CC(=O)Nc1ccc(NC(=O)COC(=O)c2c3c(nc4ccccc24)CCN(Cc2ccccc2)C3)cc1,"10 µM [rising, partial curve]",

# Some of these compounds in order of molecular weight, ascending.
SMILES,AC50 [1],AC50 [2]
CC(C)Sc1ncnc2c1oc1ccccc12,,"5.62 µM [rising, single point]"
COc1cccc(OC)c1C(=O)NCCSC1CCCCC1,,"1.26 µM [rising, full curve]"
CCCCN(CC)C(=O)c1cc2cc3ccc(OC)cc3nc2o1,"31.6 µM [rising, single point]","35.5 µM [rising, single point]"
O=C(c1cc(NC(=O)C23CC4CC(CC(C4)C2)C3)cc(NC(=O)C23CC4CC(CC(C4)C2)C3)c1)N1CCCCC1,"7.94 µM [rising, partial curve]",

# Continued:

SMILES,AC50 [1],AC50 [2]
O=C(COc1cccc2cccnc12)N/N=C/c1ccc(O)cc1,,"0.02 µM [falling, full curve, poor fit]"
O=C(COc1ccccc1)Nc1ccccc1OCc1cc(=O)n2ccccc2n1,,"0.501 µM [rising, full curve, poor fit]"
COc1ccc(-n2c(SCC(=O)c3c(N)n(C)c(=O)n(C)c3=O)nc3ccccc32)cc1,,"4.47 µM [rising, single point]"
Cc1ccc(C(=O)c2cc([N+](=O)[O-])ccc2N2CCCCC2)cc1,,"25.1 µM [falling, single point]"
O=C1C2C3C=CC(C4CC34)C2C(=O)N1/N=C/c1ccc(-c2cccc([N+](=O)[O-])c2)o1 (stereo unspecified),"14.1 µM [rising, single point]",
Cc1cccc(NC(c2ccc(O)cc2)c2ccc3ccc(C)nc3c2O)n1 (stereo unspecified),"35.5 µM [rising, single point]",
COc1ccc(-c2noc(CCC(=O)Nc3cc(Cl)c(OC)cc3OC)n2)cc1,"35.5 µM [rising, single point]",
COc1cc(NC(=O)CSc2nc3nc(C)c(Cc4ccc(C)cc4)c(C)n3n2)cc(OC)c1OC,"1.26 µM [falling, full curve, poor fit]","8.91 µM [falling, partial curve, poor fit]"
CCOc1ccc(Nc2nc3cc(S(=O)(=O)N(CC)CC)ccc3o2)cc1,"17.8 µM [rising, single point]","12.6 µM [rising, single point]"
CC(C)[C@H](NS(=O)(=O)c1cccc(Cl)c1)C(=O)OCC(=O)N1CCN(c2ccccc2)CC1,"14.1 µM [rising, partial curve, poor fit]",
CC(C)C(c1nnnn1C(C)(C)C)N1CCN(c2cccc(Cl)c2)CC1 (stereo unspecified),"35.5 µM [rising, single point]","35.5 µM [rising, single point]"
CC(C)C(=O)OC/C(O)=C(\C#N)c1nc2ccccc2[nH]1,,"0.0891 µM [rising, full curve]"
CCOC(=O)c1c(NC(=O)C2COc3ccccc3O2)sc2c1CC(C)(C)NC2(C)C (stereo unspecified),"6.31 µM [rising, full curve, poor fit]",
CCCCCCCCC(=O)N/N=C/c1ccccn1,,"12.6 µM [falling, single point]"
O=c1cc(Cn2nnc(-c3ccc(Cl)cc3)n2)nc2sccn12,"35.5 µM [rising, single point]",
N#C/C(=C\c1cccc([N+](=O)[O-])c1)C(=O)NCc1ccc(Cl)cc1,"14.1 µM [rising, single point]",
CC1=C(C(=O)OCc2ccccc2)C(c2ccccc2-c2ccccc2)NC(=O)N1CCCCCC(=O)O (stereo unspecified),"25.1 µM [rising, single point]","14.1 µM [rising, single point]"
Oc1c(Cl)cc(Cl)c(Cl)c1Cc1c(O)c(Cl)cc(Cl)c1Cl,"2 µM [rising, full curve]","5.01 µM [rising, partial curve]"

# — PubChem BioAssay AID1487 (National Center for Advancing Translational Sciences (NCATS), 2009)
